{
  "source": "paper PMC6779467",
  "key": {"[1]": {"tested_on": "Hsf1-StrepTag II + Ssa1 (Hsp70)", "test": "competition with a labelled probe", "conditions": "10 mM Tris-HCl pH 7.5, 50 mM KCl, 2.5 mM DTT, 0.25% Tween 20, 20 min at 20 C, 6% DNA retardation gel in TBE, recombinant protein, protein details: C-terminal StrepTag II,6xHis-SUMO removed by Ulp1"}, "[2]": {"tested_on": "Hsf1-StrepTag II + Ssa1 (Hsp70)", "test": "EMSA", "conditions": "10 mM Tris-HCl pH 7.5, 50 mM KCl, 2.5 mM DTT, 0.25% Tween 20, 20 min at 20 C, 6% DNA retardation gel in TBE, recombinant protein, protein details: C-terminal StrepTag II,6xHis-SUMO removed by Ulp1"}},
  "note": "For some of these results: No signal at the amounts used counts as a negative. For some of these results: At least one verdict rests on a figure or table, not on a statement of the authors. The exact form of at least one protein or probe is not confirmed. For some of these results: A weaker result is weaker than the reference pair of the same experiment.",
  "data": [
    {"sequence": "TCGATGTGCCAGTACGTAGCATCGGC (double strand) [HSE* (mut HSE)]", "values": [
      {"measurement": "binding result", "setting": "[1]; unlabeled inactive mutant HSE vs HSE-DY682", "value": "no binding"}
    ]},
    {"sequence": "TCGATTTTCCAGAACGTTCCATCGGC (double strand) [HSE (unlabeled competitor)]", "values": [
      {"measurement": "binding result", "setting": "[1]; unlabeled HSE competes HSE-DY682", "value": "binds"}
    ]},
    {"sequence": "TCGATTTTCCAGAACGTTCCATCGGC (double strand) [HSE-DY682]", "values": [
      {"measurement": "binding result", "setting": "[2]; excess Ssa1 added (5x +1.25 uM, 10x +2.5 uM, titration 0.25-4.0 uM), without ATP, titratable decrease", "value": "binds more weakly"},
      {"measurement": "binding result", "setting": "[2]; excess Ssa1 added, with 1 mM ATP, ATP has no significant effect except at highest Ssa1", "value": "binds more weakly"}
    ]}
  ]
}
